Data published in PubChem BioAssay AID280 (DTP/NCI, 2004).
The list shows only some results of the screen, not a fair sample: it gathers tests that were run many times, whatever their T/C, doses with no T/C, and many T/C values between a quarter and a half above the control. Other doses and runs of a compound stand elsewhere. T/C gives the treated animals as a percentage of the vehicle group. Some doses have a count of surviving animals in place of a T/C: the source files T/C as zero there, which appears to mark a toxic dose or a test without result, not a measured value. Some survivor counts are full or nearly so, which does not show that the dose was tolerated: survival well below the control is almost never listed, so the zero probably covers shortened survival too. Survivors were counted at the toxicity check, usually on the fifth day, unless a day is given; later deaths do not show. Schedules are NCI's codes, taken here to give the interval after Q, in days (D) or hours (H), and the number of doses after X. Some structures stand for samples that the source files as different forms (salt, stereo form or complex); doses refer to the form tested. Where survival is the endpoint, this PubChem deposit counts one and a half times the control or more as active, and values a quarter to a half above the control carry no call in these data; other NCI protocols may use other cut-offs. Some T/C values are followed by the survivors on the day toxicity was checked, most often the fifth; without a count, all were alive then. Additions like (4×) count equal records among those shown.

Test system: nude mice, LOX melanoma ip, survival T/C
Experiment: NCI In Vivo Anticancer Drug Screen. Data for tumor model Human Amelanotic Melanoma (LOX) (intraperitoneal) in NU/NU BALB/C (nude) mice
Details: T/C endpoint: median survival time, higher T/C = longer survival
Method: The antitumor activity of compounds was measured in mice bearing transplantable tumors. Survival or tumor size were measured and the results are expressed as the measurement made in the treated group (T) divided by the measurement made in the vehicle treated control group (C). The tumor model used in this assay is Human Amelanotic Melanoma (LOX) (intraperitoneal) in NU/NU BALB/C (nude) mice

[1] = dose: 50.0 mg/kg/injection, schedule: Q04DX003 (ip), vehicle: saline + Tween-80 + alcohol
[2] = dose: 100.0 mg/kg/injection, schedule: Q04DX003 (ip), vehicle: saline + Tween-80 + alcohol
[3] = dose: 10.0 mg/kg/injection, schedule: Q04DX003 (ip), vehicle: saline
[4] = dose: 25.0 mg/kg/injection, schedule: Q04DX003 (ip), vehicle: saline with Tween-80
[5] = dose: 50.0 mg/kg/injection, schedule: Q04DX003 (ip), vehicle: saline with Tween-80
[6] = dose: 3.47 mg/kg/injection, schedule: Q04DX003 (ip), vehicle: other

## CC[C@@H](C)[C@H]([C@H](CC(=O)N1CCC[C@@H]1[C@@H](OC)[C@H](C)C(=O)N[C@H](Cc1ccccc1)c1nccs1)OC)N(C)C(=O)[C@H](NC(=O)[C@@H](C(C)C)N(C)C)C(C)C
dose: 3.0 micrograms/kg/injection, schedule: Q04DX003 (ip), vehicle: saline + alcohol
  T/C: 147 % of control
dose: 6.0 micrograms/kg/injection, schedule: Q04DX003 (ip), vehicle: saline + alcohol
  T/C: 143 % of control
dose: 9.0 micrograms/kg/injection, schedule: Q04DX003 (ip), vehicle: saline + alcohol
  T/C: 138 % of control
dose: 15.0 micrograms/kg/injection, schedule: Q04DX003 (ip), vehicle: saline + alcohol
  T/C: 129 % of control
dose: 26.0 micrograms/kg/injection, schedule: Q04DX003 (ip), vehicle: saline + alcohol
  T/C: 130 % of control
dose: 43.0 micrograms/kg/injection, schedule: Q04DX003 (ip), vehicle: saline + alcohol
  survivor count: 6 of 6 on day 10
dose: 52.0 micrograms/kg/injection, schedule: Q04DX003 (ip), vehicle: saline + alcohol
  survivor count: 0 of 6 on day 10

## O=C(O)C1CC(O)CN1 (stereo unspecified)
dose: 150.0 mg/kg/injection, schedule: Q04DX003 (ip), vehicle: saline
  T/C: 129 % of control

## COc1ccc(/C=C\c2cc(OC)c(OC)c(OC)c2)c(O)c1O
[1]
  T/C: 131 % of control [4 of 6 alive on day 10]
[2]
  survivor count: 1 of 6 on day 10

## [CH3][Sn]([CH3])([Cl])[c]1cc[c]([Sn]([CH3])([CH3])[Cl])cc1
[3]
  survivor count: 0 of 6 on day 10

## S=C(N/N=C1/CCCC/C1=N/NC(=S)N1CCOCC1)N1CCOCC1
[4]
  T/C: 138 % of control [5 of 6 alive on day 10]
[5]
  survivor count: 3 of 6 on day 10

## CN(Cc1cnc2nc(N)nc(N)c2n1)c1ccc(C(=O)N[C@@H](CCC(=O)O)C(=O)O)cc1
dose: 0.75 mg/kg/injection, schedule: Q01DX015 (ip), vehicle: sodium bicarbonate
  T/C: 125 % of control
dose: 6.0 mg/kg/injection, schedule: Q01DX015 (ip), vehicle: sodium bicarbonate
  survivor count: 6 of 6 on day 10
dose: 80.0 mg/kg/injection, schedule: Q04DX003 (ip), vehicle: sodium bicarbonate
  T/C: 140 % of control
dose: 160.0 mg/kg/injection, schedule: Q04DX003 (ip), vehicle: sodium bicarbonate
  T/C: 138 % of control [5 of 6 alive on day 10]
dose: 400.0 mg/kg/injection, schedule: Q01DX001 (ip), vehicle: sodium bicarbonate
  T/C: 142 % of control

## CC1Oc2cc3c(-c4c(O)cc(O)c5c(O)c6c(cc45)OC(C)C(C)C6=O)c(O)cc(O)c3c(O)c2C(=O)C1C (stereo unspecified)
dose: 2.0 mg/kg/injection, schedule: Q04DX003 (ip), vehicle: suspension in saline
  T/C: 130 % of control
dose: 8.0 mg/kg/injection, schedule: Q04DX003 (ip), vehicle: suspension in saline
  T/C: 146 % of control
dose: 16.0 mg/kg/injection, schedule: Q04DX003 (ip), vehicle: suspension in saline
  survivor count: 1 of 6 on day 10

## CCC1(O)C(=O)OCc2c1cc1n(c2=O)Cc2cc3cc(N)ccc3nc2-1 (stereo unspecified)
dose: 30.0 mg/kg/injection, schedule: Q04DX003 (ip), vehicle: suspension in saline
  survivor count: 0 of 6 on day 10
dose: 60.0 mg/kg/injection, schedule: Q04DX003 (ip), vehicle: suspension in saline
  survivor count: 0 of 6 on day 10

## O=C1c2c(O)ccc(O)c2C(=O)c2c(NCCNCCO)ccc(NCCNCCO)c21
[6]
  T/C: 131 % of control [5 of 6 alive on day 10] (2×)
  survivor count: 4 of 6 on day 10
dose: 5.0 mg/kg/injection, schedule: Q04DX003 (ip), vehicle: water
  survivor count: 6 of 6 on day 10
dose: 10.0 mg/kg/injection, schedule: Q04DX003 (ip), vehicle: water
  survivor count: 6 of 6 on day 10
dose: 20.0 mg/kg/injection, schedule: Q04DX003 (ip), vehicle: water
  survivor count: 0 of 6 on day 10

## COc1ccc2oc(-c3ccc(Cl)cc3)c(N3CCN(C)CC3)c2c1
dose: 37.5 mg/kg/injection, schedule: Q04DX003 (ip), vehicle: saline
  T/C: 139 % of control
dose: 600.0 mg/kg/injection, schedule: Q04DX003 (ip), vehicle: saline
  survivor count: 2 of 6 on day 10

## COC(=O)C1C2CCCN2OC1(C)CO (stereo unspecified)
dose: 125.0 mg/kg/injection, schedule: Q04DX003 (ip), vehicle: saline with Tween-80
  survivor count: 6 of 6 on day 10
dose: 480.0 mg/kg/injection, schedule: Q04DX003 (ip), vehicle: saline
  T/C: 128 % of control

## Cc1ccc2c(c1)n([O-])c1cc(Cl)ccc1[n+]2=O
dose: 200.0 mg/kg/injection, schedule: Q04DX003 (ip), vehicle: saline with Tween-80
  T/C: 125 % of control
dose: 800.0 mg/kg/injection, schedule: Q04DX003 (ip), vehicle: saline with Tween-80
  T/C: 142 % of control [5 of 6 alive on day 10]

## [Cl][Hg][Cl]
dose: 1.25 mg/kg/injection, schedule: Q04DX003 (ip), vehicle: saline
  survivor count: 5 of 6 on day 10
dose: 2.5 mg/kg/injection, schedule: Q04DX003 (ip), vehicle: saline
  survivor count: 6 of 6 on day 10
dose: 5.0 mg/kg/injection, schedule: Q04DX003 (ip), vehicle: saline
  survivor count: 6 of 6 on day 10
[3]
  survivor count: 0 of 6 on day 10

## CC(=O)c1cccc(NC2C(N)C(NC(=O)N(C)C)(C(C)O)C(C)(O)C2(O)COC(=O)c2c(C)cccc2O)c1 (stereo unspecified)
dose: 3.13 mg/kg/injection, schedule: Q04DX003 (ip), vehicle: suspension in saline
  T/C: 137 % of control
dose: 6.25 mg/kg/injection, schedule: Q04DX003 (ip), vehicle: suspension in saline
  T/C: 134 % of control
dose: 25.0 mg/kg/injection, schedule: Q04DX003 (ip), vehicle: suspension in saline
  T/C: 148 % of control
dose: 50.0 mg/kg/injection, schedule: Q04DX003 (ip), vehicle: suspension in saline
  survivor count: 2 of 6 on day 10

## CCOC(=O)/N=[N+](\[O-])c1ccccc1
dose: 6.25 mg/kg/injection, schedule: Q04DX003 (ip), vehicle: saline with Tween-80
  survivor count: 6 of 6 on day 10
dose: 12.5 mg/kg/injection, schedule: Q04DX003 (ip), vehicle: saline with Tween-80
  survivor count: 4 of 6 on day 10
[4]
  survivor count: 4 of 6 on day 10
[5]
  survivor count: 2 of 6 on day 10
dose: 100.0 mg/kg/injection, schedule: Q04DX003 (ip), vehicle: saline with Tween-80
  survivor count: 0 of 6 on day 10

## CC1OC(O[C@H]2/C=C/C=C/C=C/C=C/C=C/C=C/C=C/[C@H](C)[C@@H](O)[C@@H](C)[C@H](C)OC(=O)C[C@H](O)C[C@H](O)CC[C@@H](O)[C@H](O)C[C@H](O)C[C@]3(O)C[C@H](O)[C@@H](C(=O)O)[C@H](C2)O3)C(O)C(N)C1O (stereo partly specified)
[1]
  survivor count: 0 of 6 on day 10
[2]
  survivor count: 0 of 6 on day 10
dose: 200.0 mg/kg/injection, schedule: Q04DX003 (ip), vehicle: saline + Tween-80 + alcohol
  survivor count: 0 of 6 on day 10
dose: 400.0 mg/kg/injection, schedule: Q04DX003 (ip), vehicle: saline + Tween-80 + alcohol
  survivor count: 0 of 6 on day 10

## CCC(=O)Sc1ccccc1C(=O)Nc1ccc(Cl)cc1
dose: 400.0 mg/kg/injection, schedule: Q04DX003 (ip), vehicle: saline with Tween-80
  survivor count: 3 of 6 on day 10

## CCN(CC)CC(=O)O[C@]1(CC)C(=O)OCc2c1cc1n(c2=O)Cc2cc3ccccc3nc2-1
dose: 37.5 mg/kg/injection, schedule: Q04DX003 (ip), vehicle: water
  survivor count: 2 of 6 on day 10
dose: 75.0 mg/kg/injection, schedule: Q04DX003 (ip), vehicle: water
  survivor count: 0 of 6 on day 10
dose: 150.0 mg/kg/injection, schedule: Q04DX003 (ip), vehicle: water
  survivor count: 0 of 6 on day 10
dose: 300.0 mg/kg/injection, schedule: Q04DX003 (ip), vehicle: water
  survivor count: 0 of 6 on day 10
